Measured values reported in PubChem BioAssay AID1508600 (Functional Genomics Laboratory (NCATS/FGL), 2020).
Hit rate of the full screen: of about 53,000 sequences, about 3,700 (7%) were called active.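 How the source made its calls: active means gene knockdowns whose robust z-score for IL-1 alpha signal is at least 2 or at most -2, so actives lie on both sides; inactive means the rest.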 This is one part of the list.

test: Components of the Cytosolic LPS Sensing Pathway: Gene Identification via Genome-wide siRNA Screen; details: RAW264.7 macrophages, IL-1a HTRF, actives lie on both sides, screened at 100 nM (by protocol), cells primed 5 h with Pam3CSK4 first;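 further: robust z of the log signal after scaling to non-targeting control siRNA wells of the plate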
Summary of the method: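 RAW264.7 mouse macrophages reverse-transfected with single siRNAs (100 nM final) for 48h, primed with Pam3CSK4 for 5 hours, then transfected with LipidA for 24 hour. Supernatant IL-1a read by HTRF; values normalized to negative-control median, log-transformed robust z-scores.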

Sequence	z-score
GCUUGAUAGGGAACUUAAUTT against Olfr805	inactive: -1.57
CGGGUUUAGGAGCAACCUUTT against Zdhhc4	active: -3.02
GACUUCAAACAAAUGGUGCTT against Lce1h	inactive: -0.454
GCGAGUGAUUGAGGAUCCCTT against Trmt5	inactive: 1.01
GCUGAAGAGGCGCAUACAUTT against 2610318N02Rik	active: 3.07
GGAUCAAUGUGUUCUCAUCTT against Cxcl5	inactive: -0.0105
GCUUGCUCUCAUCGGAGAUTT against Bak1	inactive: 0.0521
GGGAGAAACGCAUCUUAUCTT against Ngly1	active: 2.38
GGUGAAAUUCUGAAUGAAATT against Gatb	inactive: -0.0515
GGAGAUGUUCCACAAGAAGTT against Cacna2d3	inactive: 0.062
GGAUAAAGUACUCCAUUAATT against Prr11	inactive: -1.95
GGUGAUGUGGAAAAAUGCATT against Sult1e1	inactive: -0.483
GCCAGUUAGAUGAAUUUCATT against Cop1	inactive: -0.764
GCAUGAAAAGGUAUUACUCTT against Exoc6	inactive: 0.734
CCGAUGGGAAAAUCCAGUUTT against B4galnt3	inactive: -0.451
GGUCGAAGUGAAACCAGUCTT against Pik3r2	inactive: 0.731
CGCAAUGUAUGAUUCAAUGTT against Mogat1	inactive: 1.76
GGACAUUCAUUCACCUUAUTT against Lipt2	inactive: 0.154
GCUCCUAAUGGAAAGAACGTT against Pla2g4d	inactive: 0.0914
GGAUUUGAGUACAAGAAACTT against Tada2a	inactive: -0.523
GGAAAAGGAAAUAAAAGAGTT against Hemgn	inactive: -1.15
GCUGAAACCUCAUGAGGAGTT against Ptpn9	inactive: 0.806
GGAUACAAAUCAGGUUCUCTT against Kansl2	inactive: 0.0399

Sequence	z-score
CCCGGUCUACAGUUAUUCGTT against Mnx1	inactive: 1.95
GGGAUGUCUUCCUAUACAGTT against Cope	active: -2.78
CGUGGAGAGAUCAAUCCCGTT against Adad1	active: -2.01
GGAGUCAGUGACAAGGCUCTT against Olfr54	inactive: 0.835
GCGAGGGAUAGAAGUCGUGTT against Itpk1	inactive: -0.732
GGAAUUUAAGGUGUUCACATT against Lcn3	inactive: -0.197
GCACUGGAAUGUCAUCUCGTT against Casp3	active: 2.9
GGUAUUCCUUGCCAUUCGGTT against Stc1	inactive: 1.8
GGUCUUCAGUCCUGUACCATT against AY358078	inactive: -0.0581
GGACUUUGUGGAGAAUGUCTT against Cyp1a2	inactive: -0.876
GGCAGAACUUGCCGAGUAGTT against Tmem68	inactive: -0.664
GCUUCCUACAAUUAAUUCATT against Thap12	inactive: 0.614
GCACUUUGGGUUUAAGUACTT against Ndrg4	active: 3.7
GGUGCUUGAGAGACUGAUATT against Nes	inactive: 1.62
GCCACUAUUGAAGCUUGCCTT against Olfr1209	inactive: 1.32
GGUUCGGCUCAUCUACCAATT against Tmub1	inactive: 0.557
GGCUGUAGUGAAGGUGUACTT against Parp3	inactive: -0.414
GCUCAAAGCAUUAACUUGUTT against Pbk	inactive: -0.0955
GGAAGAAUACAAGUCUAGUTT against Pclo	inactive: 1.09
GGUUAACAAAGGAAUAGCATT against B230354K17Rik	inactive: -1.23
GGAAAGCUUGGACAUUAAGTT against Rps6kc1	inactive: -0.0887
CCUGAAGACACCAAGUUCATT against Pcp4	inactive: -0.938
GGUGAUGCUCGAAUUGGGUTT against Drg1	inactive: -0.253

Sequence	z-score
CGGUCUGAUGGAGUGCUAUTT against Plekhm1	inactive: 0.508
GGUUAUCGUGCGCAUCCGATT against Pcdh8	inactive: -0.744
GGACCGUUUCAUUUCAGGGTT against Phf1	inactive: -1.62
CCAUUCCAUGUCGAUGUCUTT against Prm2	active: -2.08
CGAGUGAGCAUCACUUUUATT against Mal	inactive: -1.25
GGCCUGUCGAAUGAAAGUGTT against Eif2ak4	inactive: -0.965
CGAGUGGCUGAAACUUCCGTT against Pik3c3	inactive: -1.27
GGAUUUGAACAUAAGUGACTT against Arhgap44	inactive: -0.0615
CCUGUUAGGAAAGAAUCUUTT against Zc3h13	inactive: -0.478
CGAAGAGGAUAGGCUACGCTT against Grk3	inactive: -0.699
CCCUAGACUAAAAAGUAAATT against Paqr5	inactive: 0.327
GGUCCUUCAACGGAAGGGATT against Tagap	inactive: 0.196
GGUCCAAAGCAAUUCCAGCTT against E330013P04Rik	inactive: 0.875
GGACUCACCUCAGGAACAGTT against Cd33	inactive: -0.53
CCUAGCACUGUUAUAAACATT against Oog1	inactive: 1.24
GGACUCUUCAGCUUCCAGUTT against Uts2	inactive: -0.0543
GGACAAAGACUUCCUUGUUTT against Gstt1	inactive: -0.99
GGAAGAGGAGAAGAGCAUGTT against Lgals6	inactive: 0.404
GGAGCAUUUUCCAGUUGAGTT against Mrps35	active: 2.41
GGGCUCCUGAGCCUCUUAATT against Sprr1a	active: 2.29
GGACUAUGAAGAGCUAGAGTT against Luzp2	inactive: -0.423
GCAGCUUCAAGCUAAUUGATT against Tram1l1	inactive: 0.0136

Some of the entries above, set out differently.
Sequence | z-score
CGGUCUGAUGGAGUGCUAUTT against Plekhm1 | inactive: 0.508
CGAGUGGCUGAAACUUCCGTT against Pik3c3 | inactive: -1.27
GGACUCACCUCAGGAACAGTT against Cd33 | inactive: -0.53
GCAGCUUCAAGCUAAUUGATT against Tram1l1 | inactive: 0.0136
